Drawing on US20190100563A1 (UNIVERSITY COURT OF THE UNIVERSITY OF EDINBURGH, published 2019), this text covers binding for 2 molecules.

By UniProt entry, the sequences of proteins in these tests, tags left out. Where a name states a change or a piece, a line headed by the entry shows the natural chain unless it says otherwise.
UniProt P08603: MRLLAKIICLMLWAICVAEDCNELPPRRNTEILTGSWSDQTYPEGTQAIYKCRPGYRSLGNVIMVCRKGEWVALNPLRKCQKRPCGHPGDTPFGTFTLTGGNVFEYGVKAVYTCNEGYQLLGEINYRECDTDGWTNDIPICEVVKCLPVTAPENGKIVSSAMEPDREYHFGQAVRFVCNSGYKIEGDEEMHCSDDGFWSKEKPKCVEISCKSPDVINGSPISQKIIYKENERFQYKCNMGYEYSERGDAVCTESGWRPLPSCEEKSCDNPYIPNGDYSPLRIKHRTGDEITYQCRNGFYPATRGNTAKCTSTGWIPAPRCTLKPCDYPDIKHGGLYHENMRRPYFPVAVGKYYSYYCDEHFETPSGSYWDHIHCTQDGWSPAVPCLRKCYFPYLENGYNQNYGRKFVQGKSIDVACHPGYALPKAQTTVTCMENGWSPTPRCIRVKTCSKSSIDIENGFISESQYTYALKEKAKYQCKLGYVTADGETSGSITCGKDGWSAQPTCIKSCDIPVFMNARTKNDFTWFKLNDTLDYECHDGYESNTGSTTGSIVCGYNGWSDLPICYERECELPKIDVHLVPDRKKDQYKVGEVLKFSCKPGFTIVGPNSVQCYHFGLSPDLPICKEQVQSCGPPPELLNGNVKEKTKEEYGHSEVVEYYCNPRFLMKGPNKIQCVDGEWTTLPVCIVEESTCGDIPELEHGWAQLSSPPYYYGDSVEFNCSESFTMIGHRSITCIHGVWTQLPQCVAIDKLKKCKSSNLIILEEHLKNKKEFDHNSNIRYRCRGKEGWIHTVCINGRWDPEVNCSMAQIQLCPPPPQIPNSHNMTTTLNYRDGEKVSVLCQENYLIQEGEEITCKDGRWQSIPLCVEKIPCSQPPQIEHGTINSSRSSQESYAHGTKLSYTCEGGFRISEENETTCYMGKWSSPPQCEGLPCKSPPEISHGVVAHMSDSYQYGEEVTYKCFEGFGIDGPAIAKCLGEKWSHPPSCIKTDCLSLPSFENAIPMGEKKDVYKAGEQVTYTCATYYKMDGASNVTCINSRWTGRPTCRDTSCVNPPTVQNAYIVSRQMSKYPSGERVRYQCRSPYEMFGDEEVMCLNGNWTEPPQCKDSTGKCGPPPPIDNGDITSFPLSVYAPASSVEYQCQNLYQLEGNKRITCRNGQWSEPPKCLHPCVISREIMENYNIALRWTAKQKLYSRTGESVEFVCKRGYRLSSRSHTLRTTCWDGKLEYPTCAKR

Experiment [1] concerns the target CFH 8-9 (recombinant fragment, CCPs 8-9 of human CFH) (human) (UniProt P08603). In words: 1H,15N HSQC NMR of the labelled protein without and with the unlabelled partner.
The target is the same in experiment [2]. Kind of experiment: 1H,15N HSQC NMR.
The target is the same in experiment [3]. In words: SPR, sPspCN on NTA/Ni2+ chip.
Experiment [4] has as its target CFH 19-20 (recombinant fragment, CCPs 19-20 of human CFH) (human) (UniProt P08603). Kind of experiment: SPR, sPspCN on NTA/Ni2+ chip. On the technique in general: In SPR one partner is held on a chip, and binding of the other changes the refractive index at the surface.

No constants are given. Whether binding was seen depends on the method and setting. Some binding calls cover weakened binding; strength is not graded here. For some of these results: Sequences can lack the tags named with a protein.

B1: PspCN (cleaved, PspC residues 37-140, S. pneumoniae strain D39) (other)
chain: ATENEGSTQAATSSNMAKTEHRKAAKQVVDEYIEKMLREIQLDRRKHTQNVALNIKLSAIKTKYLRELNVLEEKSKDELPSEIKAKLDAAFEKFKKDTLKPGEK
In the case of B1, the binding entry in experiment [1] and in experiment [2] was “binds” each time.

B2: sPspCN (N-terminally hexaHis-SUMO-tagged PspC residues 37-140, S. pneumoniae strain D39) (other)
chain: B1 chain
notes: not shown: N-terminal hexaHis-SUMO tag from the pE-SUMOpro Kan vector
B2: the binding entry in experiment [3] and in experiment [4] was “binds” in each case.
